Results reported in the supplement of paper PMC12067093, “Discovery and optimisation of a covalent ligand for TRIM25 and its application to targeted protein ubiquitination” (Chemical Science, 2025).
Some of the results follow.

Chains of the proteins cited; added tags and fusions are not shown. Lines headed by an entry give the natural chain unless they say otherwise; changes in a name come on top.
UniProt Q6UX53: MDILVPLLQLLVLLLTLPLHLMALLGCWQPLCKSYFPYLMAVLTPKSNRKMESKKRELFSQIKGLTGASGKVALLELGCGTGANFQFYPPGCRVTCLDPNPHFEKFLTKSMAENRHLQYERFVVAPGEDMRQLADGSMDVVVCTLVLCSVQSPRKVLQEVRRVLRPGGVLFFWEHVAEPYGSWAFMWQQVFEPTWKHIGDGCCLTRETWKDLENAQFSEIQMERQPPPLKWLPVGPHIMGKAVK
UniProt P40925: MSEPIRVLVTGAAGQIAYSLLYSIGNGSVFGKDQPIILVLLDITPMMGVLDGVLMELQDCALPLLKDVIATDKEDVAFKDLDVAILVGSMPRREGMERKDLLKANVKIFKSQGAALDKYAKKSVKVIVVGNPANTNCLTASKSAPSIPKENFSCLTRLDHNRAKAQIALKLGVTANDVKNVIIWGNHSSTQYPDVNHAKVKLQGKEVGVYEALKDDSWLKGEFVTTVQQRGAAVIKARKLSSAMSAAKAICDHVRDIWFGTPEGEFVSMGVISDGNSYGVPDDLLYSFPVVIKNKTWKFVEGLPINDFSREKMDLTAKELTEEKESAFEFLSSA
UniProt Q9NU22: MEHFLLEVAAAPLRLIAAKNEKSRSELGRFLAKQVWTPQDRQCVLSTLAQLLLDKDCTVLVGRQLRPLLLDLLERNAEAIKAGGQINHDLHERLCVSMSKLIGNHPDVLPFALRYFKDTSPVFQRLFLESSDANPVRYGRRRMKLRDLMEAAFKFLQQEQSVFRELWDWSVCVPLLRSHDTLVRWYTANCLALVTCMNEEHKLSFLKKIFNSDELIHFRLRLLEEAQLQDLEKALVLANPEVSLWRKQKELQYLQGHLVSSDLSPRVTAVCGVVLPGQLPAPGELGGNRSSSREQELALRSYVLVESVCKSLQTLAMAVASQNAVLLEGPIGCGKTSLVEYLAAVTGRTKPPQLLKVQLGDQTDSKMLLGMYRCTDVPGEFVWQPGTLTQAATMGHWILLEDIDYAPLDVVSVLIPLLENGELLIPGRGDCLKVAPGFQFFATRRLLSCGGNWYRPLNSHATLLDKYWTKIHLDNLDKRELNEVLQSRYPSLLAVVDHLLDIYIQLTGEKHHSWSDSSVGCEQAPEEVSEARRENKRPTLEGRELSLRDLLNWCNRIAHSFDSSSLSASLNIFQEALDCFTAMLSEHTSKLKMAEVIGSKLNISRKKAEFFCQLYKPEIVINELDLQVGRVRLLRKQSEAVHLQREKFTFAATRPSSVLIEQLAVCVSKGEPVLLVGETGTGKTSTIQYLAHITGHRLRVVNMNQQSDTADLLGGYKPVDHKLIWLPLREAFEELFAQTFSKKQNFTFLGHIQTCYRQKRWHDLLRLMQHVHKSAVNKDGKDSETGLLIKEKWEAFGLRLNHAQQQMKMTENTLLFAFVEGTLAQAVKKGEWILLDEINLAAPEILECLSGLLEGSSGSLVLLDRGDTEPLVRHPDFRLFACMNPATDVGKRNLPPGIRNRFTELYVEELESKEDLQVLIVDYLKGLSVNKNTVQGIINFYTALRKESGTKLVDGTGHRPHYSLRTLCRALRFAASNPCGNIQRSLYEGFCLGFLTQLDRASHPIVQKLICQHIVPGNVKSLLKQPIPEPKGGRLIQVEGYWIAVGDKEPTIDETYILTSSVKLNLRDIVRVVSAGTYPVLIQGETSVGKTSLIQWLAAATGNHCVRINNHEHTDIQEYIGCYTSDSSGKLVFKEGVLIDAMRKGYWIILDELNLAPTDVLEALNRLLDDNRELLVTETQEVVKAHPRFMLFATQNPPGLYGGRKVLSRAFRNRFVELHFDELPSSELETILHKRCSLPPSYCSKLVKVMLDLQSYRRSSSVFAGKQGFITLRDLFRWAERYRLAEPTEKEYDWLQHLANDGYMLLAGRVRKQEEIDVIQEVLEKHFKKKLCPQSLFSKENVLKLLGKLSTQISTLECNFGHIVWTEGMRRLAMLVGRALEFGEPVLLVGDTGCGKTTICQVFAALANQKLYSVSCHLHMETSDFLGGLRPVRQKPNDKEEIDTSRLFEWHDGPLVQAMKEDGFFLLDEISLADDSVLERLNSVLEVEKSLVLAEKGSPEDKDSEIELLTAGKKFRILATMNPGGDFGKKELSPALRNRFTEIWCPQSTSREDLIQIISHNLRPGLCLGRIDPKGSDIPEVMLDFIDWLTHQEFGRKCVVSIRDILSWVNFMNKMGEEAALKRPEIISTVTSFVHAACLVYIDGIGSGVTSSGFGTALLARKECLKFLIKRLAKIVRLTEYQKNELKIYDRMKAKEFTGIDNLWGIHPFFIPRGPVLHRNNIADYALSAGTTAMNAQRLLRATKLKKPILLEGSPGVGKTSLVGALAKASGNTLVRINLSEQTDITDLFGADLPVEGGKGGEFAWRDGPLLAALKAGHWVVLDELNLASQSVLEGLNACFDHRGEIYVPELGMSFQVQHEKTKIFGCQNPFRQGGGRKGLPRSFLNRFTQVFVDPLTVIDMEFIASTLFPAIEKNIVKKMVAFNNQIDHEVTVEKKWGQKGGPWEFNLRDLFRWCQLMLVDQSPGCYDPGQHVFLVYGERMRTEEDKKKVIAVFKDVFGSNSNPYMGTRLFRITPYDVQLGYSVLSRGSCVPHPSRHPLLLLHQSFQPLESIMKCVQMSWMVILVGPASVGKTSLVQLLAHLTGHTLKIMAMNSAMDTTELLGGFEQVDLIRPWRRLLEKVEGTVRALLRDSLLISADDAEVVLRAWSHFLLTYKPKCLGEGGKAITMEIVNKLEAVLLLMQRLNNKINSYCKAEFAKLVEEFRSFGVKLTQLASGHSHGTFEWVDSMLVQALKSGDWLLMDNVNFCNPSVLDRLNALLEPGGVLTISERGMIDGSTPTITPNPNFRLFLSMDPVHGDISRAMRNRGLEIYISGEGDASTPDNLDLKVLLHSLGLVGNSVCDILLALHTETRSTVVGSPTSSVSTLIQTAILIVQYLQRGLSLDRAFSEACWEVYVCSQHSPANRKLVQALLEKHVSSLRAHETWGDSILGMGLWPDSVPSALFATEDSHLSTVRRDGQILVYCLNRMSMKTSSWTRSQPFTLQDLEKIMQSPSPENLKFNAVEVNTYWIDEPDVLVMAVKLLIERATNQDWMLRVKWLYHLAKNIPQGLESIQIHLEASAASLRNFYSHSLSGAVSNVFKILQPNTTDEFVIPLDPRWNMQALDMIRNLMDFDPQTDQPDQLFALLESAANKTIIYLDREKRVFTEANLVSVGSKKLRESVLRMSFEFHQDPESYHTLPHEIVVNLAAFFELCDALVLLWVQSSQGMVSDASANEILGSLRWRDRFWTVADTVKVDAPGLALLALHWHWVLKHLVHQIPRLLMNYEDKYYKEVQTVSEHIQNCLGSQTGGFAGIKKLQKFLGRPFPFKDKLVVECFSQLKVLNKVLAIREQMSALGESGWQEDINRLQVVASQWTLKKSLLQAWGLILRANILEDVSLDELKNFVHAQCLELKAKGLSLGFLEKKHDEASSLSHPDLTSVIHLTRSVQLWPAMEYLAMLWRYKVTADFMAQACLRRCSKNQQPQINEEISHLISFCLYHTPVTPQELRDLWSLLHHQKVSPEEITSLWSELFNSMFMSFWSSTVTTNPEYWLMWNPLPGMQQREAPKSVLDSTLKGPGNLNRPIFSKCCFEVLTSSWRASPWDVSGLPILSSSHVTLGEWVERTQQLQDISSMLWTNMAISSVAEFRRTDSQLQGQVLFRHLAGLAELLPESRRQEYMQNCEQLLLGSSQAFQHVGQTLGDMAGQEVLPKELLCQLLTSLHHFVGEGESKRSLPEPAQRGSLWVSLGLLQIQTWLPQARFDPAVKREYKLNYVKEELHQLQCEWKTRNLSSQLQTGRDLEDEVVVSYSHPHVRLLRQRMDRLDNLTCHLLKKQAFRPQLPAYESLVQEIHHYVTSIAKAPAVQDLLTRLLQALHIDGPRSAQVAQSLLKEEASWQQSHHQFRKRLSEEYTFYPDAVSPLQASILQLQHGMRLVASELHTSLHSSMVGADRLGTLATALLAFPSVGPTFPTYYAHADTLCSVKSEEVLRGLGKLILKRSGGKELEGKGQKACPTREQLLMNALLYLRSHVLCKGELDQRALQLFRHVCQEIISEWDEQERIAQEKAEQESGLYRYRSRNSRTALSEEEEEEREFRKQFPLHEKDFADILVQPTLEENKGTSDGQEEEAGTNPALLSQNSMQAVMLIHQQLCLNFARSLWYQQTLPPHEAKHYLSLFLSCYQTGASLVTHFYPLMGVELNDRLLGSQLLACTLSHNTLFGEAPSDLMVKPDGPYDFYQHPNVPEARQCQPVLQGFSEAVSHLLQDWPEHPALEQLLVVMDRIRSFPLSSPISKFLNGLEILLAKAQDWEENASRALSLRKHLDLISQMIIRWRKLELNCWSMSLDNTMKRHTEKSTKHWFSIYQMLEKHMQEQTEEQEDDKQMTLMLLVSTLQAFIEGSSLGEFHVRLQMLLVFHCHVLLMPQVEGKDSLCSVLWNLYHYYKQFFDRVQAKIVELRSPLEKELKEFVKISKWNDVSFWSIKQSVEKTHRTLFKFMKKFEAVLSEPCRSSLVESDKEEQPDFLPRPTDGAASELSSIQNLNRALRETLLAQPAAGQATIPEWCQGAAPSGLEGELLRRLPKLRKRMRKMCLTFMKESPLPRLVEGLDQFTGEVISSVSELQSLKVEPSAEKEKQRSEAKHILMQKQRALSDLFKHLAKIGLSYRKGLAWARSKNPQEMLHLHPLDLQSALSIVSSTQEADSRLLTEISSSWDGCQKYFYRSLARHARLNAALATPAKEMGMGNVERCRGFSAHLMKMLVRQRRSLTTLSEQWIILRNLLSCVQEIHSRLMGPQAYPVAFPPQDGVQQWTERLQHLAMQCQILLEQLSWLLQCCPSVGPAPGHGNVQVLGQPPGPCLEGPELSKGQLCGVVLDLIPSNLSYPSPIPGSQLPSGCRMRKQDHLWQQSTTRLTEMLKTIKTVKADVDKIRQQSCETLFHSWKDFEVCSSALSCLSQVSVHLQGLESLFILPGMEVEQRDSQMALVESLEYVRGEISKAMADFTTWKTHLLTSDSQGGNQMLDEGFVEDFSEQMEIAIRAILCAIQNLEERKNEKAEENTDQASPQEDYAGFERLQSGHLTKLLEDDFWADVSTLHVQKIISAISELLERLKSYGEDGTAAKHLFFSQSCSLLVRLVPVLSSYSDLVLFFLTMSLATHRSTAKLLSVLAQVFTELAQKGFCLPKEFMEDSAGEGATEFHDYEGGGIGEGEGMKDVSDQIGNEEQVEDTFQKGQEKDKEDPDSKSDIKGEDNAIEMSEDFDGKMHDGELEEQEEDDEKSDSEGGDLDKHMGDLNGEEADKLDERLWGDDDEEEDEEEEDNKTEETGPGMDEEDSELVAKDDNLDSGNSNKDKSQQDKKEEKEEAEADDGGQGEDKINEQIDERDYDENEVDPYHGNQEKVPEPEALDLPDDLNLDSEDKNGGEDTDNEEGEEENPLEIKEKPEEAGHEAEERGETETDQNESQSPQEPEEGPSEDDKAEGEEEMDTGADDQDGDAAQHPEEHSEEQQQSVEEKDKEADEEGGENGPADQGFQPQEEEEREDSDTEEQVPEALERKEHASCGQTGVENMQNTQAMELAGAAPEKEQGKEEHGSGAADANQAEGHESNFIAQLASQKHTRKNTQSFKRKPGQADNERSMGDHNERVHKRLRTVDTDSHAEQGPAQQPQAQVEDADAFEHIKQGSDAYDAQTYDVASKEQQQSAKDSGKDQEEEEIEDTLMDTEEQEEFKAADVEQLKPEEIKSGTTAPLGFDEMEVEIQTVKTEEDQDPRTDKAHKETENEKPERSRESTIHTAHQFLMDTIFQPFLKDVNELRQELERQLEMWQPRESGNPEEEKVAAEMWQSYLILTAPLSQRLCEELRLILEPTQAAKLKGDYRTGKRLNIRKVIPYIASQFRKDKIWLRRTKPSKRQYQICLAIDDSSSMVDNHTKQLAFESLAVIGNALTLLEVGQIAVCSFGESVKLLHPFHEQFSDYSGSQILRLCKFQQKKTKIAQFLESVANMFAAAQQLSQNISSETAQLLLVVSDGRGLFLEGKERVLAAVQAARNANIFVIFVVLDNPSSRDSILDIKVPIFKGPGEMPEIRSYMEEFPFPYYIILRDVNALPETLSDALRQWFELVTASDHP
UniProt Q9Y316: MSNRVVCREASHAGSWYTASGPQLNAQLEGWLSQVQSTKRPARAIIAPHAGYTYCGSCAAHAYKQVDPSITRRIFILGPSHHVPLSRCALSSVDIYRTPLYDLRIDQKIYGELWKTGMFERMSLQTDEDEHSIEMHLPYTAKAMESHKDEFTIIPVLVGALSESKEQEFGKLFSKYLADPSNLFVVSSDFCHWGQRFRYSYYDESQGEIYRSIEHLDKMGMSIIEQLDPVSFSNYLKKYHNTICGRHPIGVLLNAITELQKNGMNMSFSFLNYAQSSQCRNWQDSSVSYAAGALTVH

Compound: Cc1cc(ccc1-c1ccccc1)C(=O)N1CCCN(CC1)C(=O)CCl [compound 10]
Test: probe-labelled cysteine peptide fold change vs DMSO (competition) (log2 fold change); higher = less target engagement (more negative = stronger competition)
Details: THP-1, incubation time: 4 h
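Note: competitive profiling in live THP-1 cells: cysteine peptides tagged with an iodoacetamide desthiobiotin (IA-DTB) probe, intensity after compound treatment relative to DMSO-treated cells.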

Row | Target | probe-labelled cysteine peptide fold change (10 µM) | probe-labelled cysteine peptide fold change (50 µM)
1 | MCM7_P33993_566_RYIAMCR (UniProt P33993) | -0.0177 | -0.0464
2 | MED13L_Q71F56_1919_DWSILLGECSLQTISK (UniProt Q71F56) | -0.109 | -0.0454
3 | MFAP3_P55082_73_EGTSVSIECLLTASHYEDVHWHNSK (UniProt P55082) | -0.0487 | -0.0712
4 | MDC1_Q14676_128_DQELILFADLLCQYHR (UniProt Q14676) | 0.245 | 0.852
5 | MCM4_P33991_328_IAEPSVCGR (UniProt P33991) | 0.0169 | -0.0125
6 | METTL7B_Q6UX53_79_VALLELGCGTGANFQFYPPGCR (UniProt Q6UX53) | 0.0485 | 0.183
7 | MDH1_P40925_137_VIVVGNPANTNCLTASK (UniProt P40925) | -0.101 | -0.0447
8 | MCM4_P33991_212_LGEINVIGEPFLNVNCEHIK (UniProt P33991) | -0.0897 | 0.0192
9 | MDN1_Q9NU22_1332_KLCPQSLFSK (UniProt Q9NU22) | -0.363 | -0.556
10 | METTL7B_Q6UX53_202+203_HIGDGCCLTR (UniProt Q6UX53) | -0.127 | -0.399
11 | METTL16_Q86W50_276_VTYTEFCQGR (UniProt Q86W50) | -0.00384 | -0.422
12 | MEMO1_Q9Y316_244_KYHNTICGR (UniProt Q9Y316) | -0.128 | 0.215
13 | MDN1_Q9NU22_57_DCTVLVGR (UniProt Q9NU22) | -0.0352 | 0.00173
14 | METTL3_Q86U44_320+326_HTDESLGDCSFLNTCFHMDTCK (UniProt Q86U44) | -0.102 | 0.0484
15 | MDN1_Q9NU22_979_FAASNPCGNIQR (UniProt Q9NU22) | 0.0245 | 0.0901

Exported in markdown: part of the list above

| Row | Target | probe-labelled cysteine peptide fold change (10 µM) | probe-labelled cysteine peptide fold change (50 µM) |
| --- | --- | --- | --- |
| 6 | METTL7B_Q6UX53_79_VALLELGCGTGANFQFYPPGCR (UniProt Q6UX53) | 0.0485 | 0.183 |
| 7 | MDH1_P40925_137_VIVVGNPANTNCLTASK (UniProt P40925) | -0.101 | -0.0447 |
| 8 | MCM4_P33991_212_LGEINVIGEPFLNVNCEHIK (UniProt P33991) | -0.0897 | 0.0192 |
| 9 | MDN1_Q9NU22_1332_KLCPQSLFSK (UniProt Q9NU22) | -0.363 | -0.556 |
